No constants are given. Whether binding was seen depends on the method and setting. For some of these results: In cells and extracts the contact can be indirect. Some binding calls cover weakened binding; strength is not graded here. For some of these results: Sequences can lack the tags named with a protein.
T1: His Par-6 1–351 (Drosophila melanogaster) (UniProt O97111)
T1 sequence: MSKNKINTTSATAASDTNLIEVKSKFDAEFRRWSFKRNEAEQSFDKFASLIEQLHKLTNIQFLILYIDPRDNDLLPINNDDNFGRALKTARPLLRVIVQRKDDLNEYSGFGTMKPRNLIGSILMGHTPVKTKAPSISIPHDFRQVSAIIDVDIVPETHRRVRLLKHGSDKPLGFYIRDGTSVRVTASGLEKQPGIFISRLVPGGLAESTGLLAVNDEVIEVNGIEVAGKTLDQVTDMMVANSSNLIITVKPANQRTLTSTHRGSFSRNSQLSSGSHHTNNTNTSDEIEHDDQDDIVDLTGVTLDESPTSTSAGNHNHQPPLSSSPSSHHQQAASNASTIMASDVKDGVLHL

Amino acid sequences for entries named in this document (tags omitted). A change or cut given only in a name is not applied to a line headed by its entry.
UniProt P40793: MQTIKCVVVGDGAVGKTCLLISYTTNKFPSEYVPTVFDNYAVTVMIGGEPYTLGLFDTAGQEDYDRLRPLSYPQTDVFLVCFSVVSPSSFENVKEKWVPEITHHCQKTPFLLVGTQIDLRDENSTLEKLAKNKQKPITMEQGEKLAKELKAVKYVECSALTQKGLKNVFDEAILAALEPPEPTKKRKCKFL


Legend:
[1] = molecular target: GST-Cdc42^Q61L (Drosophila melanogaster) (UniProt P40793); assay: pull-down; GST-fused protein on glutathione resin (from bacterial lysate, washed 4x); soluble purified proteins added, 60 min at room temperature; 20 mM Hepes pH 7.5, 100 mM NaCl, 5 mM MgCl2, 0.5% Tween-20, 1 mM DTT, 200 uM ATP; Coomassie-stained gel; both purified
[2] = molecular target: GST-Cdc42^Q61L (Drosophila melanogaster) (UniProt P40793); assay: pull-down; data not shown: Par-3 PDZ3 added to Par complex on solid phase Cdc42
[3] = molecular target: T1, His Par-6 1–351 (Drosophila melanogaster); assay: co-purification; His Par-6 and untagged aPKC coexpressed in 293F cells; lysate on cobalt or nickel resin, then Source Q anion exchange

Row | binding [1] | binding [2] | binding [3] | Binder
1 | binds | binds | – | Par complex (complex, UniProt O97111 1-351; A1Z9X0 1-606) chain 1: MSKNKINTTSATAASDTNLIEVKSKFDAEFRRWSFKRNEAEQSFDKFASLIEQLHKLTNIQFLILYIDPRDNDLLPINNDDNFGRALKTARPLLRVIVQRKDDLNEYSGFGTMKPRNLIGSILMGHTPVKTKAPSISIPHDFRQVSAIIDVDIVPETHRRVRLLKHGSDKPLGFYIRDGTSVRVTASGLEKQPGIFISRLVPGGLAESTGLLAVNDEVIEVNGIEVAGKTLDQVTDMMVANSSNLIITVKPANQRTLTSTHRGSFSRNSQLSSGSHHTNNTNTSDEIEHDDQDDIVDLTGVTLDESPTSTSAGNHNHQPPLSSSPSSHHQQAASNASTIMASDVKDGVLHL chain 2: MQKMPSQILNDGSSVSLNSASMNMANTPNSITVKTAYNGQIIITTINKNISYEELCYEIRNICRFPLDQPFTIKWVDEENDPCTISTKMELDEAIRLYEMNFDSQLVIHVFPNVPQAPGLSCDGEDRSIYRRGARRWRKLYRVNGHIFQAKRFNRRAFCAYCQDRIWGLGRQGFKCIQCKLLVHKKCHKLVQKHCTDQPEPLVKERAEESSDPIPVPLPPLPYEAMSGGAEACETHDHAHIVAPPPPEDPLEPGTQRQYSLNDFELIRVIGRGSYAKVLMVELRRTRRIYAMKVIKKALVTDDEDIDWVQTEKHVFETASNHPFLVGLHSCFQTPSRLFFVIEFVRGGDLMYHMQRQRRLPEEHARFYAAEISLALNFLHEKGIIYRDLKLDNVLLDHEGHIKLTDYGMCKEGIRPGDTTSTFCGTPNYIAPEILRGEDYGFSVDWWALGVLLYEMLAGRSPFDLAGASENPDQNTEDYLFQVILEKTIRIPRSLSVRAASVLKGFLNKNPADRLGCHRESAFMDIVSHPFFKNMDWELLERKQVTPPFKPRLDSDRDLANFPPEFTGEAVQLTPDDDHVIDNIDQSEFEGFEYVNPLLMSLEDCV
2 | – | – | binds | aPKC 1–606 (enzyme, UniProt A1Z9X0 1-606) MQKMPSQILNDGSSVSLNSASMNMANTPNSITVKTAYNGQIIITTINKNISYEELCYEIRNICRFPLDQPFTIKWVDEENDPCTISTKMELDEAIRLYEMNFDSQLVIHVFPNVPQAPGLSCDGEDRSIYRRGARRWRKLYRVNGHIFQAKRFNRRAFCAYCQDRIWGLGRQGFKCIQCKLLVHKKCHKLVQKHCTDQPEPLVKERAEESSDPIPVPLPPLPYEAMSGGAEACETHDHAHIVAPPPPEDPLEPGTQRQYSLNDFELIRVIGRGSYAKVLMVELRRTRRIYAMKVIKKALVTDDEDIDWVQTEKHVFETASNHPFLVGLHSCFQTPSRLFFVIEFVRGGDLMYHMQRQRRLPEEHARFYAAEISLALNFLHEKGIIYRDLKLDNVLLDHEGHIKLTDYGMCKEGIRPGDTTSTFCGTPNYIAPEILRGEDYGFSVDWWALGVLLYEMLAGRSPFDLAGASENPDQNTEDYLFQVILEKTIRIPRSLSVRAASVLKGFLNKNPADRLGCHRESAFMDIVSHPFFKNMDWELLERKQVTPPFKPRLDSDRDLANFPPEFTGEAVQLTPDDDHVIDNIDQSEFEGFEYVNPLLMSLEDCV
3 | – | – | binds | aPKC 1–600 (enzyme, UniProt A1Z9X0 1-600) MQKMPSQILNDGSSVSLNSASMNMANTPNSITVKTAYNGQIIITTINKNISYEELCYEIRNICRFPLDQPFTIKWVDEENDPCTISTKMELDEAIRLYEMNFDSQLVIHVFPNVPQAPGLSCDGEDRSIYRRGARRWRKLYRVNGHIFQAKRFNRRAFCAYCQDRIWGLGRQGFKCIQCKLLVHKKCHKLVQKHCTDQPEPLVKERAEESSDPIPVPLPPLPYEAMSGGAEACETHDHAHIVAPPPPEDPLEPGTQRQYSLNDFELIRVIGRGSYAKVLMVELRRTRRIYAMKVIKKALVTDDEDIDWVQTEKHVFETASNHPFLVGLHSCFQTPSRLFFVIEFVRGGDLMYHMQRQRRLPEEHARFYAAEISLALNFLHEKGIIYRDLKLDNVLLDHEGHIKLTDYGMCKEGIRPGDTTSTFCGTPNYIAPEILRGEDYGFSVDWWALGVLLYEMLAGRSPFDLAGASENPDQNTEDYLFQVILEKTIRIPRSLSVRAASVLKGFLNKNPADRLGCHRESAFMDIVSHPFFKNMDWELLERKQVTPPFKPRLDSDRDLANFPPEFTGEAVQLTPDDDHVIDNIDQSEFEGFEYVNPLLM
